# Test results reported in the supplement of paper PMC3334620.
# Over roughly 33,000 sequences, “E-score (-0.5 to 0.5)” has its median near -0.015; the highest 2% begin near 0.3. The list shows a part of the results.
# Target: T1, Abf1 (UniProt P14164)
# T1 sequence: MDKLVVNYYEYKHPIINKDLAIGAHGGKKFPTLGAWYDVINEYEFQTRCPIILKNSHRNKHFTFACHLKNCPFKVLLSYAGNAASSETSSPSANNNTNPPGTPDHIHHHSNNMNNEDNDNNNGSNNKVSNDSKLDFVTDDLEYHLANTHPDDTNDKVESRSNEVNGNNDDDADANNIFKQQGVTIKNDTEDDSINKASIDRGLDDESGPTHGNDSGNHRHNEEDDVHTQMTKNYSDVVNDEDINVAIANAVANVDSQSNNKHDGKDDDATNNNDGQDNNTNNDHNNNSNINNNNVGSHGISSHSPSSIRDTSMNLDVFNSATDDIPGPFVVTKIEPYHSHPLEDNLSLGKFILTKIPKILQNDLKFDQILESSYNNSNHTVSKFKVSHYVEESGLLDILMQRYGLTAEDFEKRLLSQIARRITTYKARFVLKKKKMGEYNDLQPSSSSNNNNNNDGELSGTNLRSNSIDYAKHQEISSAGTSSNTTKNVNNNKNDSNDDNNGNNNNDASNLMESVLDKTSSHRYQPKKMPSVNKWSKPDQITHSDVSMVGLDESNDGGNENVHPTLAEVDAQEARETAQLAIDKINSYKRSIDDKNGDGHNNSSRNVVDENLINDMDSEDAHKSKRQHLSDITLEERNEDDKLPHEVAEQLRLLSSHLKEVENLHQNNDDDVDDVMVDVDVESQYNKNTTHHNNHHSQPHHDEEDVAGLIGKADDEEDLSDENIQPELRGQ
# Test: PBM E-score (8-mer binding enrichment) (E-score (-0.5 to 0.5)); higher = stronger / more preferred TF binding
# Settings: protein concentration: 200 nM; construct: GST-full length
# How it was run: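 Full-length yeast transcription factors or their DNA-binding domains, GST-tagged and expressed with PURExpress, were applied at about 100-200 nM to universal all-10-mer Agilent arrays. These arrays had been made double-stranded by primer extension on fresh or once-stripped slides. Detection used fluorescent anti-GST, normalisation used masliner, and E-scores for ungapped eight-base words pooled with reverse complements came from the Universal PBM Analysis Suite.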
row,Sequence,PBM E-score
1,ACTTGCTA,-0.147
2,GTAAGTGA,0.208
3,CGATATGA,0.161
4,CCCATCGA,0.0289
5,ACAGGTTC,-0.257
6,CGATACCG,-0.0403
7,AAGTAGGA,0.0551
8,ACCCCCGT,-0.0911
9,CCTTACGC,-0.0286
10,AATTGCTA,-0.0559
11,CTCCTCCC,-0.201
12,AATTACTA,0.0958
13,CATATTAC,0.145
14,AATGCTGG,-0.141
15,ACGGGGCA,-0.00285
16,AGACTCGC,-0.238
17,GCTGAAAC,0.082
18,AGTTGCTG,-0.133
19,CATACTCC,-0.0369
20,AAGATACG,0.0984
21,CGCATAAG,-0.0581
22,CCCGCGGA,-0.0315
23,ATTCTGGG,-0.105
24,AAACCAAG,-0.0305
25,ATGAGTCG,0.0446

row,Sequence,PBM E-score
1,GACAGCTA,-0.00943
2,TCTCGCCA,0.0626
3,GACCACGC,0.0314
4,CCACACGC,-0.104
5,CTGGTAGA,-0.235
6,CGTTGTTC,0.114
7,CAAGTAAA,-0.0688
8,ACCTGGTC,-0.0792
9,CGTGCTAC,-0.00184
10,ACAATTTC,0.161
11,CGGGGTAA,0.0283
12,CATTCGGA,0.166
13,CCATCCAA,-0.112
14,ATCTGCCG,0.121
15,ATATGGTG,0.0579
16,CTCTGTAA,-0.0872
17,GCTTCCGA,0.0724
18,GTGAATTA,0.0465
19,ACCCCCAG,-0.138
20,GACCAGTA,-0.0693
21,CCAACTTC,-0.0929
22,ACAGAGGT,0.0944
23,AGCTTCCA,-0.0893
24,CTTAGAGC,-0.139
25,CGTAACAC,0.128

row,Sequence,PBM E-score
1,ACAGGCCT,-0.168
2,CGTTGAAC,0.223
3,GGGTGGTA,-0.128
4,AGCGATAA,0.28
5,CAACGGTC,0.074
6,AGAGGCGA,-0.0198
7,ACACGTAC,0.0287
8,GCCCCATA,-0.289
9,ACCTTCTA,0.0532
10,GAGCAATC,-0.088
11,GGAGGCCA,-0.411
12,AGAGGCAA,-0.181
13,CCAACAGA,-0.161
14,CCTACGCG,-0.0816
15,AGTGCTCG,-0.0709
16,GCTAGGAA,-0.159
17,CATTCTAG,0.0846
18,ATCTCGAG,-0.00814
19,GGGCTAAA,-0.129
20,AGCGGGGA,-0.308
21,CGGGTTTA,-0.106
22,ACACCGCT,-0.0667
23,CACCTACC,-0.112
24,CAGAAAAA,-0.0509
25,CTCGTGAC,0.344

row,Sequence,PBM E-score
1,ACGACCAA,0.182
2,AAATTTCT,-0.115
3,CCTATGCA,0.018
4,CACAGAGG,-0.113
5,GGACCTAC,-0.14
6,ACACTTCG,0.0805
7,CCTGGCCG,0.107
8,AGGTAATG,0.0091
9,GCTTGGAA,-0.0616
10,AATTTAAA,0.12
11,GCCTGCGA,-0.174
12,CGCTTTAC,-0.0157
13,GCCAAGGA,-0.204
14,AACGGGGA,-0.102
15,CGCGGACA,0.114
16,CGTGTTTA,0.239
17,GCGGGAGA,-0.124
18,CTGTTAGC,-0.131
19,TCATCCAA,0.215
20,AATGAACT,-0.177
21,GCAATTGA,-0.0735
22,CACACGGC,0.163
23,CAGTATAG,-0.018
24,AAAGATGA,0.212
25,ACTAAATC,0.037

row,Sequence,PBM E-score
1,CGCGCGCC,0.17
2,CAAAACGC,0.00331
3,AGATTGAG,0.208
4,GGAAGTGA,0.329
5,CAATCACC,0.0554
6,AAGATGAC,0.313
7,CCAAGGCG,-0.187
8,ACAGAGGC,-0.262
9,ATAAGTAC,0.0856
10,GACACCGC,-0.0338
11,CCGCAGAC,-0.162
12,CGTTTTTC,-0.0523
13,ATTAAGGG,-0.229
14,AAGGATAT,0.0906
15,GAGTCAAC,-0.237
16,AAGAAGGA,-0.175
17,TGAGTGCA,-0.156
18,ACACCGCA,-0.122
19,CCCGCAAG,-0.441
20,AATTAGGA,-0.0241
21,AACACCCG,0.0332
22,AATTTTTA,0.0762
23,CTTGAAAC,0.0891
24,GCGTGTCA,0.0814
25,GCCCGGGC,-0.245

row,Sequence,PBM E-score
1,ACTCCAGA,-0.169
2,CACTCTTA,0.0437
3,GACACCTC,-0.0457
4,ATGCGCAC,0.0461
5,CTTCGACA,-0.0739
6,AGAACGAT,0.235
7,ACTAGTAG,0.00272
8,ATCGTACA,0.34
9,AGGTCTCA,-0.0189
10,AGGAAGAG,-0.223
11,CATCCTAG,-0.0044
12,ACACTCTA,-0.0336
13,CGGAATAC,0.131
14,AAATGTCA,0.223
15,GAGAGTGA,0.324
16,ACGGAGAG,-0.0672
17,TCCTCACA,-0.0619
18,TACTAAAA,0.0949
19,ACCCGTCT,0.0119
20,ATTTTTTA,0.193
21,AATGTATG,0.123
22,AGCCCGCG,-0.281
23,CCGAACGA,0.251
24,GGGAAACA,0.0707
25,CATCCATG,0.00463

# Rewritten with bars between the fields: entries from further up.
row | Sequence | PBM E-score
1 | CGCGCGCC | 0.17
2 | CAAAACGC | 0.00331
3 | AGATTGAG | 0.208

# Later entries.

row,Sequence,PBM E-score
1,GACCGGAA,-0.191
2,TGTCGGAA,0.0147
3,GATCGCCA,0.165
4,AGGGCGAA,-0.299
5,AAAGCGTG,0.071
6,CAAACGAC,0.198
7,CCTGAGGC,-0.205
8,CCAGCCCA,-0.323
9,AGCGGTGC,-0.19
10,GATATTAC,0.253
11,CGCGTTTC,-0.0291
12,AGGTGTAG,-0.148
13,CATGCAGA,-0.0122
14,AATCGTAT,0.297
15,AGCGGCAC,-0.138
16,CTAGGCTA,-0.227
17,AAATATTC,0.0874
18,GGGTAACC,-0.116
19,CGAGTAAA,0.0829
20,AAATAGAA,-0.0319
21,GTCTGGGA,-0.0546
22,CCCTTGGC,-0.307

# Quoted at random: 6 entries already listed, in no set order.
row,Sequence,PBM E-score
21,GTCTGGGA,-0.0546
8,CCAGCCCA,-0.323
22,CCCTTGGC,-0.307
20,AAATAGAA,-0.0319
5,AAAGCGTG,0.071
7,CCTGAGGC,-0.205
